Results taken from patent US20250283871A1, “COMPOSITIONS AND METHODS FOR MODULATING THE INTERACTION BETWEEN SS18-SSX FUSION ONCOPROTEIN AND NUCLEOSOMES” (Dana-Farber Cancer Institute, Inc., priority 2020, published 2025).

The substances below were run on BAF complex subunits and histone proteins (assay: Mass spectrometry proteomics of purified HA-SS18 WT and HA-SS18-SSX1 complexes (Tables 5A-5E)). Conditions: HA-SS18SSX1_CHR_peptides: protein identified in the HA-SS18-SSX1 purification from solubilized chromatin (CHR), HEK-293T.
Parameters: species or system human

| Substance | Total (total peptides) | Unique (unique peptides) |
| --- | --- | --- |
| EFTUD2 | 17 | 17 |
| FAM208A | 13 | 13 |
| FAM208B | 6 | 6 |
| GAR1 | 5 | 5 |
| H2AFY | 20 | 14 |
| H2AFY2 | 15 | 13 |
| HDGFL2 | 5 | 3 |
| HEATR1 | 31 | 31 |
| HIST1H1A [listing 1 of 2 here] | 11 | 2 |
| HIST1H1C | 11 | 4 |
| HNRNPU | 55 | 21 |
| INCENP | 7 | 7 |
| INTS1 | 4 | 4 |
| KAT6A | 10 | 10 |

Same assay, conditions: HA-SS18SSX1_CHR_peptides: proteins found in HA-SS18-SSX1 BAF complex purification from solubilized chromatin (CHR), HEK-293T

| Substance | Total (peptides) | Unique (peptides) |
| --- | --- | --- |
| HBB [listing 1 of 2 here] | 1 | 1 |
| HSP90AB2P | 1 | 1 |
| HSPA2 [listing 1 of 2 here] | 1 | 1 |
| INTS8 | 1 | 1 |

Same assay, conditions: HA-SS18SSX1_CHR_peptides; total peptides of the identified protein

| Substance | Total |
| --- | --- |
| EZH2 | 1 |
| GAPDH [listing 1 of 2 here] | 3 |
| GLTSCR2 | 1 |
| GPATCH8 | 3 |
| HDAC2 | 3 |
| HEATR1 | 1 |
| HOXD13 | 3 |
| HSPA1B | 2 |
| HSPA1L | 3 |
| HSPA5 | 3 |
| HSPA8 | 4 |
| HSPA9 | 2 |
| IMP3 | 2 |
| JUN | 1 |

Same assay, conditions: HA-SS18SSX1_CHR_peptides; unique peptides of the identified protein

| Substance | Unique |
| --- | --- |
| EZH2 | 1 |
| GAPDH [listing 1 of 2 here] | 2 |
| GLTSCR2 | 1 |
| GPATCH8 | 3 |
| HDAC2 | 3 |
| HEATR1 | 1 |
| HOXD13 | 3 |
| HSPA1B | 2 |
| HSPA1L | 3 |
| HSPA5 | 3 |
| HSPA8 | 4 |
| HSPA9 | 2 |
| IMP3 | 2 |
| JUN | 1 |

Same assay, conditions: HA-SS18SSX1_NE_peptides (Table 5B); HA-SS18-SSX1 BAF complex purification from soluble nuclear extract, HEK-293T

| Substance | Total (peptides) | Unique (peptides) |
| --- | --- | --- |
| EIF2B4 [listing 1 of 2 here] | 1 | 1 |
| FANCD2 [listing 1 of 2 here] | 1 | 1 |
| HIST1H1A [listing 2 of 2 here] | 1 | 1 |
| ICMT [listing 1 of 2 here] | 1 | 1 |

Same assay, conditions: HA-SS18SSX1_NE_peptides: protein co-purified with HA-SS18-SSX1 BAF complexes from soluble nuclear extract (NE), HEK-293T cells

| Substance | Total (peptides) | Unique (peptides) |
| --- | --- | --- |
| EPB41L2 | 2 | 2 |
| ESYT2 [listing 1 of 2 here] | 1 | 1 |
| FANCI | 2 | 2 |
| GAPDH [listing 2 of 2 here] | 1 | 1 |
| GTPBP3 | 1 | 1 |
| HAX1 | 2 | 2 |
| HBB [listing 2 of 2 here] | 1 | 1 |
| HSPA2 [listing 2 of 2 here] | 1 | 1 |
| HSPB1 | 3 | 2 |
| INTS5 | 1 | 1 |
| INTS8 | 1 | 1 |
| INTS11 | 2 | 2 |
| IQGAP3 | 1 | 1 |
| JUN | 2 | 2 |

Same assay, conditions: HA-SS18SSX1 purification, NE (soluble nuclear extract) fraction, HEK-293T; peptides per identified protein

| Substance | Total (total peptides) | Unique (unique peptides) |
| --- | --- | --- |
| EFTUD2 | 11 | 11 |
| EPB41L5 | 5 | 5 |
| ERCC2 | 5 | 5 |
| ESYT2 [listing 2 of 2 here] | 12 | 12 |
| GCN1 | 6 | 6 |
| GLUD1 | 4 | 4 |
| H2AFY | 6 | 6 |
| HADHA | 16 | 13 |
| HEATR1 | 3 | 3 |
| HNRNPU | 3 | 3 |
| HSPA1B | 4 | 4 |
| HSPA1L | 5 | 4 |
| HSPA5 | 21 | 14 |
| HSPA8 | 9 | 8 |
| HSPA9 | 20 | 15 |
| IDH3B | 4 | 4 |
| INTS4 | 4 | 4 |
| INTS6 | 3 | 3 |

Same assay, conditions: HA-SS18WT_CHR_peptides: HA-SS18 WT purification from nuclease-treated solubilized chromatin (CHR), HEK-293T; label = protein identified

| Substance | Total (peptides) | Unique (peptides) |
| --- | --- | --- |
| EFTUD2 | 11 | 10 |
| ENO1 | 4 | 4 |
| FAM208A | 6 | 6 |
| FAM208B | 4 | 4 |
| GAPDH [listing 1 of 2 here] | 3 | 3 |
| GLTSCR2 | 3 | 3 |
| H2AFY | 9 | 9 |
| H2AFY2 | 8 | 6 |
| HEATR1 | 25 | 25 |
| HIST1H1A [listing 1 of 2 here] | 3 | 2 |
| HIST1H1C | 7 | 4 |
| HNRNPU | 27 | 17 |
| HSPA5 | 4 | 4 |
| INCENP | 5 | 5 |
| JUN | 4 | 4 |
| KAT6A | 5 | 4 |

Same assay, conditions: HA-SS18WT_CHR_peptides: protein identified in HA-SS18 WT BAF complex purification from nuclease-treated solubilized chromatin (CHR), HEK-293T

| Substance | Total (total peptides) | Unique (unique peptides) |
| --- | --- | --- |
| ELAVL1 | 2 | 2 |
| EPB41L5 | 1 | 1 |
| EZH2 | 2 | 2 |
| FABP5 | 1 | 1 |
| FLNA | 1 | 1 |
| GAR1 | 1 | 1 |
| HADHA | 1 | 1 |
| HBB [listing 1 of 2 here] | 1 | 1 |
| HDAC2 | 2 | 2 |
| HDGFL2 | 1 | 1 |
| HEATR1 | 1 | 1 |
| HOXD13 | 2 | 2 |
| HSP90AB2P | 1 | 1 |
| HSPA1B | 1 | 1 |
| HSPA1L | 1 | 1 |
| HSPA2 [listing 1 of 2 here] | 1 | 1 |
| HSPA9 | 1 | 1 |
| HSPB1 | 2 | 2 |
| IGKC | 1 | 1 |
| IMP3 | 2 | 2 |
| INTS1 | 1 | 1 |
| INTS4 | 2 | 2 |
| INTS8 | 1 | 1 |

Same assay, conditions: HA-SS18WT_NE_peptides: HA-SS18 WT complexes purified from nuclear extract (NE), HEK-293T; label = protein identified (Gene Symbol)

| Substance | Total (peptides) | Unique (peptides) |
| --- | --- | --- |
| EFTUD2 | 15 | 15 |
| EPB41L5 | 3 | 3 |
| ERCC2 | 3 | 3 |
| ESYT2 [listing 2 of 2 here] | 7 | 7 |
| FANCI | 3 | 3 |
| GCN1 | 9 | 8 |
| GLUD1 | 5 | 5 |
| HADHA | 12 | 11 |
| HAX1 | 3 | 3 |
| HEATR1 | 3 | 3 |
| HNRNPU | 3 | 3 |
| HSPA1B | 4 | 4 |
| HSPA1L | 6 | 6 |
| HSPA5 | 19 | 14 |
| HSPA8 | 8 | 7 |
| HSPA9 | 16 | 14 |
| IDH3B | 4 | 4 |
| INTS1 | 3 | 3 |

Same assay, conditions: HA-SS18WT_NE_peptides: proteins co-purified with HA-SS18 WT from nuclear extract (NE), HEK-293T

| Substance | Total (peptides) | Unique (peptides) |
| --- | --- | --- |
| EIF2B4 [listing 2 of 2 here] | 1 | 1 |
| ESYT2 [listing 2 of 2 here] | 1 | 1 |
| EXOC4 | 1 | 1 |
| FANCD2 [listing 2 of 2 here] | 1 | 1 |
| FIS1 | 1 | 1 |
| GRWD1 | 1 | 1 |
| HBB [listing 1 of 2 here] | 1 | 1 |
| HSPA2 [listing 1 of 2 here] | 2 | 2 |
| ICMT [listing 2 of 2 here] | 1 | 1 |
| INTS4 | 1 | 1 |
| INTS6 | 1 | 1 |
| INTS8 | 1 | 1 |
| INTS11 | 2 | 2 |
| JUN | 2 | 2 |
